Chains of the proteins cited; added tags and fusions are not shown. Chains listed by the source or under a name are the forms on record and can include a tag or linker.
Polγ holoenzyme WT (Polγ_A + Polγ_B) (Homo sapiens), one chain, as listed by the source, chain 2 of 2: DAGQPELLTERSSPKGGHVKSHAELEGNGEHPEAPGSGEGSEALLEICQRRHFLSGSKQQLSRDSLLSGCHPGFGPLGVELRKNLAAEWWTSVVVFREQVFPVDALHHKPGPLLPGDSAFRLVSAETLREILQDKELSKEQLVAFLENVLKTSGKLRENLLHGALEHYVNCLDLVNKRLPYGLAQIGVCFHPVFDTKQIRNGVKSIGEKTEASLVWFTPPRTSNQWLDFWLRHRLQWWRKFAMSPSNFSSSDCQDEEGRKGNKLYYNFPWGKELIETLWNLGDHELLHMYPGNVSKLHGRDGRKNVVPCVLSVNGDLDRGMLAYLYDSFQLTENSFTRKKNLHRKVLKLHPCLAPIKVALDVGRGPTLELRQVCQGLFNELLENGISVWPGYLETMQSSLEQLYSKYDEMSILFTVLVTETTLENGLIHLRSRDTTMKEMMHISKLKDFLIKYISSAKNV
Polγ holoenzyme WT (Polγ_A + Polγ_B) (Homo sapiens), one chain, as listed by the source, chain 1 of 2: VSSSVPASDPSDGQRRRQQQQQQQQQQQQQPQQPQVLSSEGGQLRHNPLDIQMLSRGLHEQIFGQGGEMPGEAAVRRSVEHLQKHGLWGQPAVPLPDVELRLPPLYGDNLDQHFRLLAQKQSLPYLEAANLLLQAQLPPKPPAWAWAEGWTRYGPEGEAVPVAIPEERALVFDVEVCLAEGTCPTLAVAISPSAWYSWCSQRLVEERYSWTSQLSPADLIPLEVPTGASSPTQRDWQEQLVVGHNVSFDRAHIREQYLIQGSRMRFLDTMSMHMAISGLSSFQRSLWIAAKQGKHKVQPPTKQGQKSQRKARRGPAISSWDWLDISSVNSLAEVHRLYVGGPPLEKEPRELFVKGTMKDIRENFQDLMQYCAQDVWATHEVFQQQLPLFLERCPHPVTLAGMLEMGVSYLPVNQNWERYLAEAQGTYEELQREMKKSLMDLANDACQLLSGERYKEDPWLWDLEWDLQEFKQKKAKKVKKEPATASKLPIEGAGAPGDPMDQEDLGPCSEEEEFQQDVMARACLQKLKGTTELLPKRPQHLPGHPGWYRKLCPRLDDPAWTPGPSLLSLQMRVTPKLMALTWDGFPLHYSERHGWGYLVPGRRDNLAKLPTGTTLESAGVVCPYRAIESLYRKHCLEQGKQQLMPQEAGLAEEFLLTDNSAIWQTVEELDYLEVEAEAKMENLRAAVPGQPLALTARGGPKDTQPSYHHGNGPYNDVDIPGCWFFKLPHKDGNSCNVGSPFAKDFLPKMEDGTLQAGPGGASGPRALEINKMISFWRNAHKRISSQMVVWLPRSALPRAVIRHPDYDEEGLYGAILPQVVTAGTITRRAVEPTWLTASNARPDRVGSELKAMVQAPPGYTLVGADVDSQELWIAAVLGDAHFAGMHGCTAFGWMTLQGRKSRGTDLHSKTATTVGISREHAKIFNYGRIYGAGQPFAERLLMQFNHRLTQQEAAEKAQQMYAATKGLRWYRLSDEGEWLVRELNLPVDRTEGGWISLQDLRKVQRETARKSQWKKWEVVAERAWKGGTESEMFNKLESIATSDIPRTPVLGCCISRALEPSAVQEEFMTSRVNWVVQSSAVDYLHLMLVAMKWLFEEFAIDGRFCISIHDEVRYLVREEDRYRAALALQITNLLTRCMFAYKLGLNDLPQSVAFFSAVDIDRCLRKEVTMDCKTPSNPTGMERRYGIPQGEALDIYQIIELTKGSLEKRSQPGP

According to article PMC10752894:

Tested on: Polγ holoenzyme WT (Polγ_A + Polγ_B) (Homo sapiens)
Test: EMSA
Conditions: 10 mM Mg2+; EMSA: 40 mM Tris-HCl pH 7.9, 60 mM NaCl, 10 mM MgCl2, 5% glycerol, 20 mM 2-mercaptoethanol, 0.1 mg/ml BSA, 150 nM Cy3 scaffold, 10 min room temperature; 0.5% agarose; recombinant protein; protein details: N-terminal His (both subunits); label: 5'-Cy3 on DNA24

## GGTACAACTTGACGACATAGCGTG / CGGTCGAGTCACGACTCCGATTATCACGCTATGTCGTCAAGTTGTACC [DNA24/DNA24TS]
  binding result: binds

For at least one entry, the source does not settle the construct or the ends of the probe. At least one verdict was read from the data and is not stated in words by the source.
